{"source": "patent US10100372B2", "about": "“Recombinant RSV reporter virus” (priority 2014, dated 2018)", "test_system": "recRSV-L19FD489E-fireSMASh", "assay_type": "cell-based, Respiratory Syncytial Virus", "data": [{"molecule": "O=c1n(Cc2nc3ccccc3n2CCCCO)c2cnccc2n1C1CC1", "note": "[BMS-433771]", "values": [{"measurement": "hit status in co-infection validation assay with pan-resistant RSV-FD489E", "value": "did not emerge as hits"}]}]}
